From PMC11599752
Like-named read-outs stand apart in the source and are kept apart here. These are yes or no findings as the source states them, for the method shown. In cells and extracts the contact can be indirect. Some binding calls cover weakened binding; strength is not graded here.

The chains behind the UniProt entries cited, without tags or fusion partners.
UniProt P12956: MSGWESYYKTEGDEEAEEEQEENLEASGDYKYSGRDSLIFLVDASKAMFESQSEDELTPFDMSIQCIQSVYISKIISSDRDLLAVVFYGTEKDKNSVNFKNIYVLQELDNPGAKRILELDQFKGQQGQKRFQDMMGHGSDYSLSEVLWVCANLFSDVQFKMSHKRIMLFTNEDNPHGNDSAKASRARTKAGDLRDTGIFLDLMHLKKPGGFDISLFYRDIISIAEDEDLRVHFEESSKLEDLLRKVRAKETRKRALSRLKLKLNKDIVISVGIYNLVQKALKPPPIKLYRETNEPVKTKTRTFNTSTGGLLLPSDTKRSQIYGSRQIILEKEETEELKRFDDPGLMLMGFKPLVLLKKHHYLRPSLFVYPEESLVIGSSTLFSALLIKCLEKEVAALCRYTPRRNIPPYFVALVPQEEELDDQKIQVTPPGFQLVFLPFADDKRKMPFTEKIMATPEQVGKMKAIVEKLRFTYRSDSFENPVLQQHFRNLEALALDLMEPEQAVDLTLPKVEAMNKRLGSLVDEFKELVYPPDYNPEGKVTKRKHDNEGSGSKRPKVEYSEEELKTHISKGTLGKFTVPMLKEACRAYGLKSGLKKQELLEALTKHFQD
UniProt P35637: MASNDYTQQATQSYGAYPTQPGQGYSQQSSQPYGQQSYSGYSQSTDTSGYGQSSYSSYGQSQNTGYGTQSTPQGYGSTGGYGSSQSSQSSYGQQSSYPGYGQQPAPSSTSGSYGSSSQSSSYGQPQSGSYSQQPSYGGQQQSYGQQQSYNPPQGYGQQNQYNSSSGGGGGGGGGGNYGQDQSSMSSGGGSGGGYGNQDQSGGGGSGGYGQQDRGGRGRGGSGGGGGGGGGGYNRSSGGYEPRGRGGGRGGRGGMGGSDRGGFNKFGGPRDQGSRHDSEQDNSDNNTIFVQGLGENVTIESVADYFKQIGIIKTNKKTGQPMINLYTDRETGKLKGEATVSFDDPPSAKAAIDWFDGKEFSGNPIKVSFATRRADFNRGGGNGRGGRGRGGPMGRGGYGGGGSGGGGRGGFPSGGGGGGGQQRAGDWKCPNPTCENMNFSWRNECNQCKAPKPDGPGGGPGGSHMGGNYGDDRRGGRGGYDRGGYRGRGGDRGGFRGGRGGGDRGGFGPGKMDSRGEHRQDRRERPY

How the values were obtained:
[1] = molecular target: T1, SFPQ (human (endogenous in TREx-BCBL1-RTA)) (UniProt P23246); test: co-IP
T1 sequence: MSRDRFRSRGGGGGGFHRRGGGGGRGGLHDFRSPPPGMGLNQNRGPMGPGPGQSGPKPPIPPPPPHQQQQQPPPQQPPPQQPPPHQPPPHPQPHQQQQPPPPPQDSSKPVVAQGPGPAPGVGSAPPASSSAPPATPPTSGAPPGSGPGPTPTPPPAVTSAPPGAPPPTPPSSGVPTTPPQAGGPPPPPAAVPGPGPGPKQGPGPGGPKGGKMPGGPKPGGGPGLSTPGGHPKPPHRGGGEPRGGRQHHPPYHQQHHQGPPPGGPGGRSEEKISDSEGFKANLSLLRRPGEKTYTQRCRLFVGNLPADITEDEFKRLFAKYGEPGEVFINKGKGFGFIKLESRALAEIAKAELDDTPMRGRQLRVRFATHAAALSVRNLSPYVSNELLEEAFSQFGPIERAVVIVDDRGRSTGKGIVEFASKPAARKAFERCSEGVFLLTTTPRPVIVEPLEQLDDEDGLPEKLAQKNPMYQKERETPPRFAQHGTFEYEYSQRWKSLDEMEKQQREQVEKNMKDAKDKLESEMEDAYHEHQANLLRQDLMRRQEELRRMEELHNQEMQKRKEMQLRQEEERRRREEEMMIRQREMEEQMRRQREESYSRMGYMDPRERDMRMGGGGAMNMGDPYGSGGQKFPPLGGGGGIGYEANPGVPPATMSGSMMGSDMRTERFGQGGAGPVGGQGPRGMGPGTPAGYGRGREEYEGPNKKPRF

[2] = molecular target: T1, SFPQ (human (endogenous in TREx-BCBL1-RTA)); test: co-IP; remark: listed apart in the source

Ku70 (from UniProt P12956 1-609)
binding [1]: binds

FUS (from UniProt P35637 1-526)
binding [1]: binds

B1: PSPC1 (protein, UniProt Q8WXF1 1-523)
chain: MMLRGNLKQVRIEKNPARLRALESAVGESEPAAAAAMALALAGEPAPPAPAPPEDHPDEEMGFTIDIKSFLKPGEKTYTQRCRLFVGNLPTDITEEDFKRLFERYGEPSEVFINRDRGFGFIRLESRTLAEIAKAELDGTILKSRPLRIRFATHGAALTVKNLSPVVSNELLEQAFSQFGPVEKAVVVVDDRGRATGKGFVEFAAKPPARKALERCGDGAFLLTTTPRPVIVEPMEQFDDEDGLPEKLMQKTQQYHKEREQPPRFAQPGTFEFEYASRWKALDEMEKQQREQVDRNIREAKEKLEAEMEAARHEHQLMLMRQDLMRRQEELRRLEELRNQELQKRKQIQLRHEEEHRRREEEMIRHREQEELRRQQEGFKPNYMENREQEMRMGDMGPRGAINMGDAFSPAPAGNQGPPPMMGMNMNNRATIPGPPMGPGPAMGPEGAANMGTPMMPDNGAVHNDRFPQGPPSQMGSPMGSRTGSETPQAPMSGVGPVSGGPGGFGRGSQGGNFEGPNKRRRY
binding [2]: binds
